We go through 1 compound from patent US12403136B2, “Cannabinoid derivatives as pharmaceutically active compounds and methods of preparation thereof” (JAZZ PHARMACEUTICALS RESEARCH UK LIMITED, priority 2019, dated 2025).

In the series the test system is mouse model of generalised seizure (tonic hind limb extensor convulsions). Description: Maximal electroshock seizure threshold (MEST) test in the mouse. Conditions: diazepam 2.5 mg/kg i.p., test 30 min post dose, vehicle CC50 21.0 mA. The method, then: The efficacy of exemplary cannabinoid derivatives according to Formula I and Formula II were tested in a mouse model of generalised seizure, the maximal electroshock seizure threshold (MEST) test.
The maximal electroshock seizure threshold (MEST) test is widely utilized preclinically to evaluate pro- or anti-convulsant properties of test compounds (Loscher et al., 1991).
In the MEST test the ability of a drug to alter the seizure threshold current required to induce hind limb tonic extensor convulsions is measured according to an “up and down” method of shock titration (Kimball et al., 1957). An increase in seizure threshold is indicative of anti-convulsant effect.
Conversely, a reduction in seizure threshold is indicative of a pro-convulsant effect as observed with known convulsant agents such as picrotoxin.
The ability of a test compound to alter the stimulus intensity, expressed as current (mA), required to induce the presence of tonic hind limb extensor convulsions, is assessed in the MEST.
Naïve mice were acclimatised to the procedure room in their home cages for up to 7 days, with food and water available ad libitum. […]
Test compound effects were also calculated as percentage change in CC50 from the vehicle control group.
Significant difference between drug-treated animals and controls were assessed according to Litchfield and Wilcoxon (1949).
In general terms: The maximal electroshock test induces tonic seizures with an electrical stimulus.

On to `CN1C(=O)CN=C(c2ccccc2)c2cc(Cl)ccc21` [Diazepam, diazepam, reference compound], for which the “CC50 +/− SEM” value is listed as 35.0 +/− 1.1 mA. Also, the “CC50 +/− SEM” value (listed as diazepam) is on record as 35 mA.
